Laboratory results published in paper PMC10403143.
Results are given in words; binding and its absence hold for the method and conditions named. Binding seen in cells or lysates may run through a third protein. Here binding means that the protein was enriched with, or labelled near, the bait; the list need not be complete.

By UniProt entry, the sequences of proteins in these tests, tags left out. Residues count along the entry.
UniProt O08852, residues 24-4293: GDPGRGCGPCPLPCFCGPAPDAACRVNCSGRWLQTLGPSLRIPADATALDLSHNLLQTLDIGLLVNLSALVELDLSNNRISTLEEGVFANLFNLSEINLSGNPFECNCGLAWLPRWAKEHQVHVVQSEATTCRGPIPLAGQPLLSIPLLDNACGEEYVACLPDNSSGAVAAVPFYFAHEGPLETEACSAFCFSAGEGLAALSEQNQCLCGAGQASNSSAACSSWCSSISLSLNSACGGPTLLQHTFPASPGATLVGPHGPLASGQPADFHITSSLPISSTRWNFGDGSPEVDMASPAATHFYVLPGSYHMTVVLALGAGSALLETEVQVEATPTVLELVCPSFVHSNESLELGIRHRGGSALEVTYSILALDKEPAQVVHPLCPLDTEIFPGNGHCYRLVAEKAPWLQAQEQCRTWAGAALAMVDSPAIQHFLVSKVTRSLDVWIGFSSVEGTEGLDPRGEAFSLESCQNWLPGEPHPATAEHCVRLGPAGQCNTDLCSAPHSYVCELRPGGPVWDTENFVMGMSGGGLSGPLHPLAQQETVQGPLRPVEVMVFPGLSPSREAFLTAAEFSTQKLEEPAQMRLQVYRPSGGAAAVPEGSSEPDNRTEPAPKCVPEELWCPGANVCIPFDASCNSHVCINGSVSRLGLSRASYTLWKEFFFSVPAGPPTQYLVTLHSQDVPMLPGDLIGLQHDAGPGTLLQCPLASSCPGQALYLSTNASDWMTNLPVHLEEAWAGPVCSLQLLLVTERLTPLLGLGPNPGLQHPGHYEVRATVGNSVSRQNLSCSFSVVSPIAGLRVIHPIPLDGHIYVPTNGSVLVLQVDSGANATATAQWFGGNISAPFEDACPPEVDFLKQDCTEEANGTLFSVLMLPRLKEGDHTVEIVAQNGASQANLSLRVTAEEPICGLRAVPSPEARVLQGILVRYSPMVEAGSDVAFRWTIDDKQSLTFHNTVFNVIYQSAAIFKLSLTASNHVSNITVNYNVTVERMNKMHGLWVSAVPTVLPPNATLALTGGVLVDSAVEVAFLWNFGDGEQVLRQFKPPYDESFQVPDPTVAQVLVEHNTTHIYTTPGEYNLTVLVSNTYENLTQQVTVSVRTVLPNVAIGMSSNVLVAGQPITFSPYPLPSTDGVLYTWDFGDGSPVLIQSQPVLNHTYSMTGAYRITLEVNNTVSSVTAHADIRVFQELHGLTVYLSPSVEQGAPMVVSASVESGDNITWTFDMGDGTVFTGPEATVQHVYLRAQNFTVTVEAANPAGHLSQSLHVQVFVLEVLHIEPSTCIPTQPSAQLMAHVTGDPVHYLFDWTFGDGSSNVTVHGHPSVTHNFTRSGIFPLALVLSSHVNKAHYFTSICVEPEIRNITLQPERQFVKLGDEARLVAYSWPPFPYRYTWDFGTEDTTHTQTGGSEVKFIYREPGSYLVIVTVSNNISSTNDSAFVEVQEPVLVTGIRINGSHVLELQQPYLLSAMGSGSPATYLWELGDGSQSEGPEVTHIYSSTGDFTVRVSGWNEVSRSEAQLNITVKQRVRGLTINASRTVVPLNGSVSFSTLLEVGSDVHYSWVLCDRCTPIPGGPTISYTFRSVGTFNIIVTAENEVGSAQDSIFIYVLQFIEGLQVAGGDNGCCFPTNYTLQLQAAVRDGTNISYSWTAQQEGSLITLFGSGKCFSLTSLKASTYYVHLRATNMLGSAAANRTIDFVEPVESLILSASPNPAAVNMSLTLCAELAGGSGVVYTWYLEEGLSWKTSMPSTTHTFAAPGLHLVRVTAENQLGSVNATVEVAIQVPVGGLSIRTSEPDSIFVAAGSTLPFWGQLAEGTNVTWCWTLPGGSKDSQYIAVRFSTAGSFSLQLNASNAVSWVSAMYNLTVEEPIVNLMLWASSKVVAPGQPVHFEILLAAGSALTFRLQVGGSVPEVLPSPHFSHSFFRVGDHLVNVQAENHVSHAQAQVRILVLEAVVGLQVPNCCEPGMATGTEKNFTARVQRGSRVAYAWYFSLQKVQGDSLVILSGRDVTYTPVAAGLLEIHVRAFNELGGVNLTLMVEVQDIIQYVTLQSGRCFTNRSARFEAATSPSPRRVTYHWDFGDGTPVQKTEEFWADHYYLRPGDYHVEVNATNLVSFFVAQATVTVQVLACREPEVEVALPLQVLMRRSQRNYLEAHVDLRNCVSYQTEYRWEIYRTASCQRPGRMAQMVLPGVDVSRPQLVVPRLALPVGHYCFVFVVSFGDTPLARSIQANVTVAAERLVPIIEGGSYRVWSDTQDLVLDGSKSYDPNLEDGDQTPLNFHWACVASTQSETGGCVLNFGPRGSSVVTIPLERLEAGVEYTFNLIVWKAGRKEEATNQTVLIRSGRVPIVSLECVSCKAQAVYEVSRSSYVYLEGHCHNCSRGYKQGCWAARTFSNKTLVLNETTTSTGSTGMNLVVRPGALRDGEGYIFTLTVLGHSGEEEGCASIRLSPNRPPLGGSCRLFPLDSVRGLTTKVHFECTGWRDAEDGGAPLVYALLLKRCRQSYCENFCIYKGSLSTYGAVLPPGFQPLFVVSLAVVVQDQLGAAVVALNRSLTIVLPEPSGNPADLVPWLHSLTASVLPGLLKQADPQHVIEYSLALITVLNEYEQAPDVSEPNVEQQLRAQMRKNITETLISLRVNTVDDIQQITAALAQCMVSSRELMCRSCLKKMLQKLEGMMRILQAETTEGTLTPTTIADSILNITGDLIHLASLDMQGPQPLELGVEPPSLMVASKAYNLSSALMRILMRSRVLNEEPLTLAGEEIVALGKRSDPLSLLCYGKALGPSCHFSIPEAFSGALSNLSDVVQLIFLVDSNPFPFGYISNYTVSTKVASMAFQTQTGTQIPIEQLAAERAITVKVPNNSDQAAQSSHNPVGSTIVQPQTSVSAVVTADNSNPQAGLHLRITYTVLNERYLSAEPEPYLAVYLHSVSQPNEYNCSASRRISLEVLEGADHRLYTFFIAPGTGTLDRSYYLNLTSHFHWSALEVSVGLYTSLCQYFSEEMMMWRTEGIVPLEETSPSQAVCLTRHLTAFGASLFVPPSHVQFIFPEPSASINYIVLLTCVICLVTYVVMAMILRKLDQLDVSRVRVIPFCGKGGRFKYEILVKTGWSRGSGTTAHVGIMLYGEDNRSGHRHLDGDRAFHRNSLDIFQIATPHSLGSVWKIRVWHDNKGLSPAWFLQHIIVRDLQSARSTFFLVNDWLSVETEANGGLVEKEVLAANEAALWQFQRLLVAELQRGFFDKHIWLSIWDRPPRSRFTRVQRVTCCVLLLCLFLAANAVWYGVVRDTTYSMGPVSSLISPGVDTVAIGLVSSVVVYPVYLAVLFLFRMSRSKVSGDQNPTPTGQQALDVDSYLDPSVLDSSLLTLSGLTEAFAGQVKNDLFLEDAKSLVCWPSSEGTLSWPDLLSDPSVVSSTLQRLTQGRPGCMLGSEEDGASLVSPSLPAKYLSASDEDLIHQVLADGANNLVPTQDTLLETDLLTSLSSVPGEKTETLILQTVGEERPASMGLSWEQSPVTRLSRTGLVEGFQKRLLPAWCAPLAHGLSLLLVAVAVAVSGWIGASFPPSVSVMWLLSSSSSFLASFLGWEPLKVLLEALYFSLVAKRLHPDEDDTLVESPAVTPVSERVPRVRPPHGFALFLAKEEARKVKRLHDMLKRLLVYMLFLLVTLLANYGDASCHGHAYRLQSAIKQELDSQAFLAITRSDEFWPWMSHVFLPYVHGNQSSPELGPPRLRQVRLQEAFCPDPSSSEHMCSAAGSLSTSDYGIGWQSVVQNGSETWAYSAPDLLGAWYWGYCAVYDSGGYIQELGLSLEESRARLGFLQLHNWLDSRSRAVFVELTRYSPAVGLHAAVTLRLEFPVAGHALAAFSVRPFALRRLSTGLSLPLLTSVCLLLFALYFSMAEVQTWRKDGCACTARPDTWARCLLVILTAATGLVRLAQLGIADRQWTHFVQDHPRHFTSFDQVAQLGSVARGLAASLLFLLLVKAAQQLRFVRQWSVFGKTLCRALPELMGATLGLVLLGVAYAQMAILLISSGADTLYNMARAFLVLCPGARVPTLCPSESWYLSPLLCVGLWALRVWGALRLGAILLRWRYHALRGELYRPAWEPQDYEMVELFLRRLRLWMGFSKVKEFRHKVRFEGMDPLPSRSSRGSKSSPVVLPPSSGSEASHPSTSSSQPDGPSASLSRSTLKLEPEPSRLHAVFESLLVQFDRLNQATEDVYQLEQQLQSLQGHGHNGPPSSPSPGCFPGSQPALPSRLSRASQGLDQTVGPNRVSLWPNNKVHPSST

Target: Polycystin-1 with eGFP and three HA tags at its C-terminus, from the Pkd1^eGFP knock-in allele (mouse) (UniProt O08852)
Assay: affinity purification with mass spectrometry; GFP-trap IP from lysates of 8 P1 mouse heads per genotype (Pkd1^eGFP/eGFP against Pkd1^wt/wt, about 80 mg protein), low-stringency fast washes. Three experiments; MaxQuant non-normalized enrichment ratios.

B1: nicotinamide nucleotide transhydrogenase (protein, UniProt Q61941 44-1086)
chain: CKSPVKPGIPYKQLTVGVPKEIFQNEKRVALSPAGVQALVKQGFNVVVESGAGEASKFPDDLYRAAGAQIQGMKEVLASDLVVKVRAPMVNPTLGAHEADFLKPSGTLISFIYPAQNPDLLNKLSERKTTVLAMDQVPRVTIAQGYDALSSMANISGYKAVVLAANHFGRFFTGQITAAGKVPPAKILIVGGGVAGLASAGAAKSMGAVVRGFDTRAAALEQFKSLGAEPLEVDLKESGEGQGGYAKEMSKEFIEAEMKLFAQQCKEVDILISTALIPGKKAPVLFSKEMIESMKEGSVVVDLAAEAGGNFETTKPGELYVHKGITHIGYTDLPSRMATQASTLYSNNITKLLKAISPDKDNFHFEVKDDFDFGTMSHVIRGTVVMKDGKVIFPAPTPKNIPEEAPVKPKTVAELEAEKAGTVSMYTKTLTTASVYSAGLTGMLGLGIVAPNVAFSQMVTTFGLAGIIGYHTVWGVTPALHSPLMSVTNAISGLTAVGGLALMGGHFYPSTTSQSLAALATFISSVNIAGGFLVTQRMLDMFKRPTDPPEYNYLYLLPGGTFVGGYLAALYGGYNIEEIMYLGSGLCCVGALGGLSTQGTARLGNALGMIGVAGGLAATLGGLKPDPQLLAQMSGAMAMGGTIGLTIAKRIQISDLPQLVAAFHSLVGLAAVLTCMAEYIVEYPHFAMDATSNFTKIVAYLGTYIGGVTFSGSLVAYGKLQGILKSAPLLLPGRHALNAGLLAASVGGIIPFMADPSFTTGITCLGSVSGLSTLMGVTLTAAIGGADMPVVITVLNSYSGWALCAEGFLLNNNLLTIVGALIGSSGAILSYIMCVAMNRSLANVILGGYGTTSTAGGKPMEISGTHTEINLDNAVEMIREANSIVITPGYGLCAAKAQYPIADLVKMLTEQGKKVRFGIHPVAGRMPGQLNVLLAEAGVPYDIVLEMDEINSDFPDTDLVLVIGANDTVNSAAQEDPNSIIAGMPVLEVWKSKQVIVMKRSLGVGYAAVDNPIFYKPNTAMLLGDAKKTCDALQAKVRESYQK
With B1 the binding was “binds”.
